Measurements taken from the supplement of paper PMC9744312.
Structures can show the parent of a compound that is named as a salt. Some of the results follow. Single values of this set are uncertain.

system: Peyronie's disease tunica albuginea primary fibroblasts; assay: cell viability (DRAQ5 nuclear stain) relative to TGF-beta1-only control; higher = more viable cells; settings: 10 µM; TGF-beta1 10 ng/mL; 72 h

| SMILES | cell viability |
| --- | --- |
| COCCOC(=O)C1=C(C)NC(C)=C(C(=O)OC/C=C/c2ccccc2)C1c1cccc([N+](=O)[O-])c1 (stereo not drawn) [Cilnidipine] | 94% |
| CCOc1nc2cccc(C(=O)O)c2n1Cc1ccc(-c2ccccc2-c2noc(=O)[nH]2)cc1 [Azilsartan] | 91.1% |
| CN(C)CCOc1ccc(/C(=C(/CCCl)c2ccccc2)c2ccccc2)cc1 [Toremifene Citrate] | 80.6% |
| CCCN(CCC)C(=O)C1=Cc2ccc(-c3ccc(C(=O)N4CCCC4)cc3)cc2N=C(N)C1 [Motolimod (VTX-2337)] | 78.5% |
| O=C(NCCO[N+](=O)[O-])c1cccnc1 [Nicorandil] | 91.2% |
| C=C1/C(=C\C=C2/CCC[C@]3(C)[C@@H]([C@H](C)/C=C/[C@@H](O)C4CC4)CC[C@@H]23)C[C@@H](O)C[C@@H]1O [Calcipotriene] | 85% |
| Cc1ccc(Cl)c(Nc2ccccc2C(=O)O)c1Cl [Meclofenamate Sodium] | 77.3% |
| CC1=Nc2ccc(Cl)cc2S(=O)(=O)N1 [Diazoxide] | 91.6% |
| CO[C@@]12[C@H](COC(N)=O)C3=C(C(=O)C(C)=C(N)C3=O)N1C[C@@H]1N[C@@H]12 [Mitomycin C] | 35.2% |
| Oc1ccc(OCc2ccccc2)cc1 [Monobenzone] | 87.7% |
| CC(=O)Oc1c(C)c(C)c2c(c1C)CCC(C)(CCC[C@H](C)CCC[C@H](C)CCCC(C)C)O2 (stereo partly drawn) [Vitamin E Acetate] | 92.6% |
| C[C@H]1C[C@H]2[C@@H]3CCC4=CC(=O)C=C[C@]4(C)[C@@]3(F)[C@@H](O)C[C@]2(C)[C@@]1(O)C(=O)CO [Betamethasone] | 76.2% |
| CNC(=O)[C@H](Cc1c[nH]c2ccccc12)NC(=O)[C@@H](CC(=O)NO)CC(C)C [Ilomastat (GM6001, Galardin)] | 86.7% |
| CC[C@H](C)[C@@H]1NC(=O)[C@H](CCCNC(=N)N)NC(=O)[C@H](CC(=O)O)NC(=O)[C@H](CCSC)NC(=O)[C@H](CCCNC(=N)N)NC(=O)CNC(=O)CNC(=O)[C@H](Cc2ccccc2)NC(=O)[C@@H](NC(=O)[C@H](CO)NC(=O)[C@H](CO)NC(=O)[C@H](CCCNC(=N)N)NC(=O)[C@H](CCCNC(=N)N)NC(=O)[C@H](CC(C)C)NC(=O)[C@@H](N)CO)CSSC[C@@H](C(=O)N[C@@H](CC(N)=O)C(=O)N[C@@H](CO)C(=O)N[C@@H](Cc2ccccc2)C(=O)N[C@@H](CCCNC(=N)N)C(=O)N[C@@H](Cc2ccc(O)cc2)C(=O)O)NC(=O)CNC(=O)[C@H](CC(C)C)NC(=O)CNC(=O)[C@H](CO)NC(=O)[C@H](CCC(N)=O)NC(=O)[C@H](C)NC(=O)CNC1=O [Carperitide Acetate] | 96.8% |
| COC(=O)N(C)c1c(N)nc(-c2nn(Cc3ccccc3F)c3ncccc23)nc1N [Riociguat (BAY 63-2521)] | 102% |
| C[C@H](O)C(=O)Nc1c(I)c(C(=O)NC(CO)CO)c(I)c(C(=O)NC(CO)CO)c1I [Iopamidol] | 88.7% |
| OC[C@H]1O[C@H](O[C@H]2[C@H](O)[C@@H](O)C(O)O[C@@H]2CO)[C@H](O)[C@@H](O)[C@@H]1O (mixture of isomers) [Maltose] | 94.5% |
| O=C1CC2(CCCC2)CC(=O)N1CCCCN1CCN(c2ncccn2)CC1 [Buspirone HCl] | 90.4% |
| CC[C@H]1OC(=O)[C@H](C)[C@@H](O[C@H]2C[C@@](C)(OC)[C@@H](O)[C@H](C)O2)[C@H](C)[C@@H](O[C@@H]2O[C@H](C)C[C@H](N(C)C)[C@H]2O)[C@](C)(O)C[C@@H](C)[C@@H]2N[C@@H](COCCOC)O[C@H]([C@H]2C)[C@]1(C)O [Dirithromycin] | 88.1% |
| N#Cc1cc(-c2n[nH]c(-c3ccncc3)n2)ccn1 [Topiroxostat] | 91.6% |
| CCCCCCCCCCCCCCCC(=O)O[C@@H]1[C@@H](O)[C@@H](O)[C@@H]([C@H](NC(=O)[C@@H]2C[C@@H](CCC)CN2C)[C@H](C)Cl)O[C@@H]1SC [Clindamycin palmitate HCl] | 104% |

A few values from the entries so far.
Oc1ccc(OCc2ccccc2)cc1 [Monobenzone] | cell viability: 87.7%
CC[C@H](C)[C@@H]1NC(=O)[C@H](CCCNC(=N)N)NC(=O)[C@H](CC(=O)O)NC(=O)[C@H](CCSC)NC(=O)[C@H](CCCNC(=N)N)NC(=O)CNC(=O)CNC(=O)[C@H](Cc2ccccc2)NC(=O)[C@@H](NC(=O)[C@H](CO)NC(=O)[C@H](CO)NC(=O)[C@H](CCCNC(=N)N)NC(=O)[C@H](CCCNC(=N)N)NC(=O)[C@H](CC(C)C)NC(=O)[C@@H](N)CO)CSSC[C@@H](C(=O)N[C@@H](CC(N)=O)C(=O)N[C@@H](CO)C(=O)N[C@@H](Cc2ccccc2)C(=O)N[C@@H](CCCNC(=N)N)C(=O)N[C@@H](Cc2ccc(O)cc2)C(=O)O)NC(=O)CNC(=O)[C@H](CC(C)C)NC(=O)CNC(=O)[C@H](CO)NC(=O)[C@H](CCC(N)=O)NC(=O)[C@H](C)NC(=O)CNC1=O [Carperitide Acetate] | cell viability: 96.8%

More results

| SMILES | cell viability |
| --- | --- |
| CO[C@@]1(NC(=O)CSC[C@@H](N)C(=O)O)C(=O)N2C(C(=O)O)=C(CSc3nnnn3C)CS[C@@H]21 [Cefminox Sodium] | 118% |
| C[C@H](CCC(=O)O)[C@H]1CC[C@H]2[C@@H]3CC[C@@H]4C[C@H](O)CC[C@]4(C)[C@H]3C[C@H](O)[C@]12C [Deoxycholic acid] | 80.8% |
| Nc1ccc2cc3ccc(N)cc3nc2c1 [Proflavine Hemisulfate] | 70.7% |
| CC(=O)N1C[C@H](O)C[C@H]1C(=O)O [Oxaceprol] | 88.4% |
| O=C([O-])[O-].[Na+].[Na+] [Sodium carbonate] | 95.3% |
| CCC(=O)c1c(O)cc(O)cc1O [Flopropione] | 81.7% |
| N#Cc1ccnc(N2C(=O)CC[C@H]2C(=O)N(c2cncc(F)c2)[C@H](C(=O)NC2CC(F)(F)C2)c2ccccc2Cl)c1 [Ivosidenib (AG-120)] | 103% |
| CNC(=O)c1cnn(-c2nc(N)c3ncn([C@@H]4O[C@H](CO)[C@@H](O)[C@H]4O)c3n2)c1 [Regadenoson] | 81.2% |
| CO/N=C(\C(=O)N[C@@H]1C(=O)N2C(C(=O)O)=C(Cn3ccc(=N)n3CCO)CS[C@H]12)c1csc(N)n1 [Cefoselis Sulfate] | 97.1% |
| CC1Cc2ccccc2N1NC(=O)c1ccc(Cl)c(S(N)(=O)=O)c1 (stereo not drawn) [Indapamide] | 95.3% |
| Nc1ccc(S(=O)(=O)Nc2ccnn2-c2ccccc2)cc1 [Sulfaphenazole] | 81.1% |
| CN1CCN(CCOc2cc(OC3CCOCC3)c3c(Nc4c(Cl)ccc5c4OCO5)ncnc3c2)CC1 [Saracatinib (AZD0530)] | 82% |
| O=C(NCC(O)CO)c1c(I)c(C(=O)NCC(O)CO)c(I)c(N(CCO)C(=O)CO)c1I (stereo not drawn) [Ioversol] | 92% |
| CO/N=C(\C(=O)N[C@@H]1C(=O)N2C(C(=O)O)=C(COC(N)=O)CS[C@H]12)c1ccco1 [Cefuroxime sodium] | 96.8% |
| O=C1CN2Cc3c(ccc(Cl)c3Cl)N=C2N1 [Anagrelide HCl] | 88.2% |
| CC(C)NCC(O)COc1ccc(COCCOC(C)C)cc1 (stereo not drawn) [Bisoprolol fumarate] | 76.9% |
| CN(C)Cc1c(C(=O)NCCOc2ccc(C(=O)NO)cc2)oc2ccccc12 | 43.8% |
| CN1CC[C@H](c2c(O)cc(O)c3c(=O)cc(-c4ccccc4Cl)oc23)[C@H](O)C1 [Flavopiridol (Alvocidib)] | 53.2% |
| COc1cc(S(=O)(=O)O)ccc1O [Sulfogaiacol] | 91.6% |
| Nc1nc(Cl)nc2c1ncn2[C@@H]1O[C@H](CO)[C@@H](O)[C@@H]1F [Clofarabine] | 63.5% |
| CC(C)C(=O)OCC(=O)[C@@]12O[C@H](C3CCCCC3)O[C@@H]1C[C@H]1[C@@H]3CCC4=CC(=O)C=C[C@]4(C)[C@H]3[C@@H](O)C[C@@]12C [Ciclesonide] | 75.4% |

Exported in CSV form: part of the list above.
SMILES,cell viability
Nc1nc(Cl)nc2c1ncn2[C@@H]1O[C@H](CO)[C@@H](O)[C@@H]1F [Clofarabine],63.5%
CC(C)C(=O)OCC(=O)[C@@]12O[C@H](C3CCCCC3)O[C@@H]1C[C@H]1[C@@H]3CCC4=CC(=O)C=C[C@]4(C)[C@H]3[C@@H](O)C[C@@]12C [Ciclesonide],75.4%

An excerpt of these results, with bars between the fields:
SMILES | cell viability
CC1Cc2ccccc2N1NC(=O)c1ccc(Cl)c(S(N)(=O)=O)c1 (stereo not drawn) [Indapamide] | 95.3%
O=C1CN2Cc3c(ccc(Cl)c3Cl)N=C2N1 [Anagrelide HCl] | 88.2%

Continuation:

| SMILES | cell viability |
| --- | --- |
| CC(C)[C@H]1C(=O)N[C@@H](CCCN=C(N)N)C(=O)NCC(=O)N[C@@H](CC(=O)O)C(=O)N[C@H](Cc2ccccc2)C(=O)N1C | 63.3% |
| Nc1nc(=O)c2nc(CNc3ccc(C(=O)N[C@@H](CCC(=O)O)C(=O)O)cc3)cnc2[nH]1 [Folic acid] | 94.8% |
| C=C1CC[C@H](O)C/C1=C/C=C1\CCC[C@]2(C)[C@@H]([C@H](C)CCCC(C)(C)O)CC[C@@H]12 [Calcifediol] | 75.2% |
| CC[C@H]1OC(=O)[C@H](C)[C@@H](O[C@H]2C[C@@](C)(OC)[C@@H](O)[C@H](C)O2)[C@H](C)[C@@H](O[C@@H]2O[C@H](C)C[C@H](N(C)C)[C@H]2O)[C@](C)(O)C[C@@H](C)/C(=N\OCOCCOC)[C@H](C)[C@@H](O)[C@]1(C)O [Roxithromycin] | 80.6% |
| Nc1nc(F)nc2c1ncn2[C@@H]1O[C@H](CO)[C@@H](O)[C@@H]1O [Fludarabine] | 81.2% |
| Clc1ccc(C(Cn2ccnc2)OCc2c(Cl)cccc2Cl)c(Cl)c1 (stereo not drawn) [Isoconazole nitrate] | 88.2% |
| NCCC[C@H](N)C(=O)O [L-Ornithine] | 90.2% |
| NC(=O)N1c2ccccc2C=Cc2ccccc21 [Carbamazepine] | 89.3% |
| O=C(CCCCCCNC(=O)c1cnc(N(c2ccccc2)c2ccccc2)nc1)NO [Ricolinostat (ACY-1215)] | 61.2% |
| NC(CO)(CO)CO [Trometamol] | 93.1% |
| c1cnc2cc3c(cc2n1)[C@@H]1CNC[C@H]3C1 [Varenicline Tartrate] | 95.1% |
| CC(=O)OCC(COC(C)=O)OC(C)=O [Triacetin] | 87.7% |
| CO[C@H]1/C=C/O[C@@]2(C)Oc3c(C)c(O)c4c(c3C2=O)C2=NC3(CCN(CC(C)C)CC3)NC2=C(NC(=O)/C(C)=C\C=C\[C@H](C)[C@H](O)[C@@H](C)[C@@H](O)[C@@H](C)[C@H](OC(C)=O)[C@@H]1C)C4=O [Rifabutin] | 88.6% |
| C[N+](C)(C)CCO.O=C([O-])C(O)C(O)C(=O)O (stereo not drawn) [Choline bitartrate] | 88.1% |
| Cn1c(=O)cc(N2CCC[C@@H](N)C2)n(Cc2cc(F)ccc2C#N)c1=O [Trelagliptin] | 67.1% |
| Cn1c(=O)cc(N2CCC[C@@H](N)C2)n(Cc2cc(F)ccc2C#N)c1=O [Trelagliptin succinate] | 62.6% |
| C=C1c2cccc(O)c2C(=O)C2=C(O)[C@]3(O)C(=O)C(C(N)=O)=C(O)[C@@H](N(C)C)[C@@H]3[C@@H](O)[C@H]12 [Methacycline HCl] | 97.3% |
| c1ccc(C2CN3CCSC3=N2)cc1 (stereo not drawn) [Tetramisole HCl] | 99% |
| CCCN[C@H]1CCc2nc(N)sc2C1 [Pramipexole dihydrochloride] | 80.8% |
| CCCN[C@H]1CCc2nc(N)sc2C1 [Pramipexole] | 92.5% |
| CCCN[C@H]1CCc2nc(N)sc2C1 [Pramipexole 2HCl Monohydrate] | 95% |
